Laboratory results published in PubChem BioAssay AID720504 (National Center for Advancing Translational Sciences (NCATS), 2013).
Screen size: about 360,000 compounds; about 10,000 (2.8%) were called active. Inconclusive results, whose numbers are uncertain, are shown with a selection of clear calls. The call rests on the fitted dose curve; in most records, active means well fitted inhibition curve with a large enough effect; inconclusive means small, poorly fitted or top-dose-only effect; inactive means flat fitted curve, though single readings scatter. Potencies of inconclusive entries are doubtful fits and often do not repeat.

The chains behind the UniProt entries cited, without tags or fusion partners.
UniProt P53350, whole entry, looked up: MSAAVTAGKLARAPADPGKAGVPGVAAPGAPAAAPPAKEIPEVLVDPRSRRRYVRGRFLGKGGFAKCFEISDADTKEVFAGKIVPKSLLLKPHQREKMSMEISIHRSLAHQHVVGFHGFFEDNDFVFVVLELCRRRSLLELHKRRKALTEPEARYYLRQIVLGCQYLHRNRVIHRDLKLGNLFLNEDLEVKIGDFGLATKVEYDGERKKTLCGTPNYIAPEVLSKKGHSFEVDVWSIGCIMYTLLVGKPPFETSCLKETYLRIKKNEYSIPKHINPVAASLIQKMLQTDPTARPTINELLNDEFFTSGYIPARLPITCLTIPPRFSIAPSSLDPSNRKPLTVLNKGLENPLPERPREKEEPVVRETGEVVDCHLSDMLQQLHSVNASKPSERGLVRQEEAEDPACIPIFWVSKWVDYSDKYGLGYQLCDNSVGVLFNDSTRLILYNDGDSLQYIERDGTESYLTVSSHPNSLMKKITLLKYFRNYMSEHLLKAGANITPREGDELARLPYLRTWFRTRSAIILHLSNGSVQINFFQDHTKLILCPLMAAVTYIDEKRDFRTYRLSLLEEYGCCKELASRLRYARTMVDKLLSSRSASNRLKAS

Target: Serine/threonine-protein kinase PLK1 (Homo sapiens) (UniProt P53350)
Experiment: qHTS for Inhibitors of PLK1-PDB (polo-like kinase 1 - polo-box domain): Primary Screen; further: nearly all actives have a fitted effect of over 65% in size; on max response, negative = inhibition: series mostly up to about 57 µM
Conditions: Plk1 PBD binding of FITC phosphopeptide, fluorescence polarization
On the % scale 0 is the no-effect control and ±100 the full control effect; potency means the concentration at half of the fitted maximal effect.

Row | Structure (SMILES) | Potency | max response, negative = inhibition
1 | Cc1ccc(/C=C2\CC(C)CC3=C2NC(=S)NC3c2ccc(C)cc2)cc1 (stereo not given) | inconclusive: 26.7 µM [inhibitor, partial curve] | 
2 | C[C@@H]1CN([C@H](C)CO)C(=O)CCCn2cc(nn2)CO[C@H]1CN(C)S(C)(=O)=O | inconclusive: 26.7 µM [inhibitor, partial curve] | 
3 | O=c1[nH]c(=S)[nH]c2c1C(c1ccc(F)cc1)OC(CCC(F)(F)F)C2 (stereo not given) |  | inactive: -0.215%
4 | O=C(CCc1nc(-c2ccccc2F)no1)Nc1ccc(Oc2ccccc2)cc1 |  | inactive: -0.36%
5 | Cc1cc(/C=N/NC(N)=S)c(O)c(/C=N/NC(N)=S)c1 | inconclusive: 2.38 µM [inhibitor, full curve] | 
6 | Cc1cc(NO)nc(-c2ccc(Br)cc2)n1 |  | inactive: -16.6%
7 | O=C(N[C@H](Cc1ccc(Cl)cc1)C(=O)O)OCC1c2ccccc2-c2ccccc21 | inconclusive: 23.8 µM [inhibitor, single point] | 
8 | CCC(=O)c1ccc(OC(=O)c2cnccn2)cc1 | inconclusive: 33.6 µM [inhibitor, single point] | 
9 | CC(=O)Oc1ccccc1C(=O)C=Cc1cccc([N+](=O)[O-])c1 | inconclusive: 11.9 µM [inhibitor, partial curve] | 
10 | CSc1ccc(/C=N/Nc2ccc(Cl)c(C(=O)O)c2)cc1 | inconclusive: 21.2 µM [inhibitor, single point] | 
11 | Cc1ccc(S(=O)(=O)NC(=O)Nc2ccc(C)cn2)cc1 | inconclusive: 23.8 µM [inhibitor, single point] | 
12 | CCOc1ccc(C2/C(=C(\O)c3c(C)[nH]c(C(=O)OC)c3C)C(=O)C(=O)N2CCN(C)C)cc1 (stereo not given) | inconclusive: 29.9 µM [inhibitor, single point] | 
13 | CCN1C(=O)/C(=C\N(C)C)S/C1=N\S(=O)(=O)c1ccccc1 | inconclusive: 26.7 µM [inhibitor, partial curve] | 
14 | O=C(O)c1[nH]c2ccccc2c1NS(=O)(=O)c1ccc(F)cc1 | inconclusive: 26.7 µM [inhibitor, single point] | 
15 | CC1=C(C(=O)Nc2cccc(C)n2)C(c2ccc3c(c2)OCO3)C2=C(CC(c3ccco3)CC2=O)N1 (stereo not given) | inconclusive: 75.2 µM [inhibitor, single point] | 
16 | Cc1ccc(C(=O)NC(=S)NNC(=O)c2ccccc2[N+](=O)[O-])cc1 | inconclusive: 26.7 µM [inhibitor, single point] | 
17 | COc1cc(C2C(C#N)=C(N)Oc3n[nH]c(C)c32)cc2c1OCO2 (stereo not given) | inconclusive: 23.8 µM [inhibitor, partial curve] | 
18 | c1ccc(COc2cncc(-c3cccnc3)c2)cc1 | inconclusive: 23.8 µM [inhibitor, partial curve] | 
19 | COc1ccc(Cc2c(C(C)(C)C)nc3ccc(Cl)cn23)c(C)c1 |  | inactive: 3.93%
20 | COc1ccc(S(=O)(=O)n2nc(OC(C)=O)cc2N(C(C)=O)C(C)=O)cc1 | inconclusive: 26.7 µM [inhibitor, partial curve] | 
21 | Brc1cccc(OCCSc2ncccn2)c1 | active: 13.4 µM | 
22 | O=C(CN1CCCc2ccccc21)NC(=O)NC1CCCCC1 | active: 26.7 µM | 
23 | CCCCCC(/C=N/Nc1ccc(S(=O)(=O)N2CCOCC2)cc1[N+](=O)[O-])=C\c1ccccc1 |  | inactive: -1.48%
24 | COCCCn1c(=O)/c(=C\c2ccccc2OC(C)C)s/c1=C(/C#N)C(=O)Nc1ccc(C(=O)O)cc1 |  | inconclusive: -32.7% [inhibitor]

Pulled by structure from the list above:
Row | Structure (SMILES) | Potency | max response, negative = inhibition
2 | C[C@@H]1CN([C@H](C)CO)C(=O)CCCn2cc(nn2)CO[C@H]1CN(C)S(C)(=O)=O | inconclusive: 26.7 µM [inhibitor, partial curve] | 
1 | Cc1ccc(/C=C2\CC(C)CC3=C2NC(=S)NC3c2ccc(C)cc2)cc1 (stereo not given) | inconclusive: 26.7 µM [inhibitor, partial curve] | 

The list goes on.

Row | Structure (SMILES) | Potency | max response, negative = inhibition
25 | CC1CCc2c(sc3[nH]c(=S)n(C)c(=O)c23)C1 (stereo not given) | active: 10.6 µM | 
26 | COc1ccc(-n2ccnc(SCC(=O)NCc3ccccc3Cl)c2=O)cc1 | inconclusive: 23.8 µM [inhibitor, single point] | 
27 | Cc1cc(Cl)c(OCCOCCN2CCCC(C)C2)c(Br)c1 (stereo not given) |  | inactive: 8.79%
28 | C#CCN(C[C@@H]1[C@@H](OC(=O)Nc2cccs2)[C@@H](OC(=O)Nc2cccs2)Cn2c(=O)n(CCCCCC)c(=O)n21)S(=O)(=O)c1ccc(C)cc1 |  | inconclusive: -31.6% [inhibitor]
29 | CC(C)(C)C1CCC(=O)N2CCC[C@]2(c2ccccc2)C1 (stereo not given in full) |  | inactive: -8.62%
30 | Cc1ccccc1-c1cc(C(=O)Nc2nc3c(s2)CCCC3)c2ccccc2n1 | inconclusive: 29.9 µM [inhibitor, single point] | 
31 | Cc1cc(C)cc(NC(=O)C(OC(=O)c2sccc2C)c2ccccc2)c1 (stereo not given) |  | inactive: -5.74%
32 | CCOC(=O)c1csc(N/N=C2\CCCc3ccccc32)n1 | inconclusive: 26.7 µM [inhibitor, single point] | 
33 | CN1C(=O)c2oc3ccccc3c(=O)c2C1c1ccncc1 (stereo not given) | active: 26.7 µM | 
34 | CCN(CC(=O)Nc1ccccc1OC)C(=O)c1ccc(NS(=O)(=O)c2ccc(C(C)=O)cc2)cc1 | inconclusive: 37.7 µM [inhibitor, single point] | 
35 | Cc1oc(-c2ccccc2)nc1CS(=O)CC(=O)N1CCc2ccccc2C1 (stereo not given) | inconclusive: 18.9 µM [inhibitor, partial curve] | 
36 | CCOc1ccc(C2CC(=O)n3nc(C45CC6CC(CC(C6)C4)C5)nc3S2)cc1OC (stereo not given) | inconclusive: 23.8 µM [inhibitor, single point] | 
37 | Cc1cc(C)cc(OCCCOc2cccc3cccnc23)c1 | inconclusive: 29.9 µM [inhibitor, partial curve] | 
38 | S=C1Cc2ccccc2C(c2ccc(Cl)cc2)N1 (stereo not given) | inconclusive: 33.6 µM [inhibitor, single point] | 
39 | CNc1cnn(-c2ccc(C)cc2)c(=O)c1Cl | inconclusive: 33.6 µM [inhibitor, single point] | 
40 | CC(C)NOC(=O)c1ccc(Cl)cc1 | active: 29.9 µM | 
41 | O=C(O)c1ccc2c(c1)[C@@H]1C=CC[C@@H]1[C@H](c1ccccn1)N2 | inconclusive: 26.7 µM [inhibitor, partial curve] | 
42 | COc1ccc(-c2csc(Nc3ccc(S(N)(=O)=O)cc3)n2)cc1OC | active: 8.44 µM | 
43 | Cc1ccc2nc(Cl)c(/C=N/n3c(C)nnc3C)cc2c1 |  | inactive: -2.97%
44 | CCCCCCCCCCS(=O)(=O)N/N=C/c1ccc(O)cc1 | inconclusive: 29.9 µM [inhibitor, partial curve] | 
45 | O=C(O)c1ccccc1C(=O)Nc1ccc(Oc2cccc3ccccc23)cc1 |  | inactive: -17.6%
46 | CC(=O)Nc1ccc(OCCOc2ccc(/C=C3\C(=N)N4N=C(C(C)C)SC4=NC3=O)cc2)cc1 | inconclusive: 23.8 µM [inhibitor, single point] | 
47 | C/C(=N\Nc1cccc(C(=O)O)c1)c1ccc2c(c1)Nc1ccccc1S2 | active: 26.7 µM | 
48 | CCCCc1cc(=O)oc2cc(C)c(CN3CCCC3)c(O)c12 |  | inactive: -26.2%

Row | Structure (SMILES) | Potency | max response, negative = inhibition
49 | S=C(c1ccc(-c2ccccc2)o1)N1CCCCC1 | active: 9.47 µM | 
50 | O=S(=O)(c1ccc(F)cc1)N1CCN(S(=O)(=O)c2cc(F)ccc2F)CC1 | active: 21.2 µM | 
51 | CCOC(=O)CSCC(=O)Nc1cc(C)ccc1C | inconclusive: 26.7 µM [inhibitor, partial curve] | 
52 | O=C(/C=C/c1ccco1)NCC(=O)N/N=C/c1ccc([N+](=O)[O-])cc1 | active: 10.6 µM | 
53 | CC(=O)c1ccc(OCC(=O)Nc2cccc(S(=O)(=O)N3CCCC3)c2)cc1 |  | inactive: -13.1%
54 | Cc1sc2nc3ccc(N4CCCC4)nn3c(=O)c2c1C | inconclusive: 29.9 µM [inhibitor, partial curve] | 
55 | CCc1nnc(NC(=O)CSc2nnc3c(n2)[nH]c2ccccc23)s1 | inconclusive: 29.9 µM [inhibitor, partial curve] | 
56 | C=CCn1c(SCC(=O)c2ccc(OC)cc2)nnc1-c1cc2cccc(OC)c2o1 |  | inconclusive: -31.7% [inhibitor]
57 | CN(C)c1ccc(/C=C2\SC(=O)N(CC(O)Cn3c4ccccc4c4ccccc43)C2=O)cc1 (stereo not given) | inconclusive: 16.8 µM [inhibitor, partial curve] | 
58 | Cc1nc(-c2ccccn2)nc(SCC(=O)N2CCOCC2)c1Cl | active: 23.8 µM | 
59 | CCCCOc1ccc(/C=C(\C(=O)O)c2ccc(S(=O)(=O)N3CCCC3)s2)cc1 | inconclusive: 26.7 µM [inhibitor, single point] | 
60 | CCS(=O)CCSc1nc2ccccc2s1 (stereo not given) | inconclusive: 21.2 µM [inhibitor, partial curve] | 
61 | CCOC(=O)N1C(=O)[C@@](CC)(c2ccccc2)N1C(=O)OCC | active: 13.4 µM | 
62 | Cc1cc2oc(C(=O)NCc3ccc4c(c3)OCO4)c(C)c2cc1C | inconclusive: 26.7 µM [inhibitor, single point] | 
63 | CCOC(=O)c1c(OCCO)nn(-c2ccccc2)c1N |  | inactive: -13.4%
64 | COc1ccc2c(CC(=O)OCC(=O)N3CCc4ccccc43)coc2c1 | active: 26.7 µM | 
65 | O=C(NC(=S)N1CCOCC1)C12CCC3CC(CC(C3)C1)C2 | active: 29.9 µM | 
66 | Cc1ccc(S(=O)(=O)N2[C@@H](c3ccc(Cl)cc3)C(C(=O)O)=C[C@H]2C(C)(C)C)cc1 | inconclusive: 37.7 µM [inhibitor, single point] | 
67 | O=C(CSc1nc2ccc([N+](=O)[O-])cc2s1)NC1CCS(=O)(=O)C1 (stereo not given) | inconclusive: 26.7 µM [inhibitor, single point] | 
68 | Oc1ccc(N=Cc2ccc(O)c(O)c2)cc1 | active: 21.2 µM | 
69 | Cc1cc(O)c(C2(O)C(=O)Nc3cc(Br)ccc32)cc1C (stereo not given) |  | inconclusive: -28.4% [inhibitor]
70 | CN(C)/C=C1\C(=O)N(c2ccc([N+](=O)[O-])cc2)N=C1c1ccccc1 | inconclusive: 37.7 µM [inhibitor, single point] | 
